PubChem BioAssay AID602196 – INSERM – 2012
The whole screen tested about 23,000 reagents; below is a random part of them. 455 of them (2%) were called active. 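Active includes both protection and sensitisation; some change values fall well beyond the stated -50 to +50 range.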 Further read-outs or replicates are left out here. The record does not give: the amount of reagent.

- Aim: 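Knock-downs that protect lung cancer cells from cisplatin or sensitise them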
- Cells: human A549 lung cancer cells
- Reagents: siRNA pair against human genes
- Time to read-out: 48 h transfection before cisplatin; time from cisplatin to read-out not stated
- Treatment: cisplatin at a dose killing half of control-siRNA cells; exact dose and duration not given
- Detection: 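Cisplatin cell death as a shift from the 50% death seen with control siRNA; siRNAs toxic or growth-blocking alone scored 0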
- Reading the numbers: two-siRNA summed score (-2 to +2): higher = both siRNAs protect from cisplatin killing; -2 means both sensitise
- Active means: 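Each siRNA scores 0 if harmful alone by LDH or WST-1, otherwise +1 if it reduces and -1 if it increases cisplatin killing; a gene is active when both siRNAs agree (sum +2 or -2)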
- Calls: active = both siRNAs shift cisplatin killing the same way; inactive = no consistent shift, or siRNA harmful alone

{"gene symbol":"ZDHHC13 (zDHHC palmitoyltransferase 13)","two-siRNA summed score (-2 to +2)":1,"call":"inactive"}
{"gene symbol":"TECRL (trans-2,3-enoyl-CoA reductase like)","two-siRNA summed score (-2 to +2)":0,"call":"inactive"}
{"gene symbol":"LOC387686","two-siRNA summed score (-2 to +2)":1,"call":"inactive"}
{"gene symbol":"ABCC1","two-siRNA summed score (-2 to +2)":0,"call":"inactive"}
{"gene symbol":"ELAC2 (elaC ribonuclease Z 2)","two-siRNA summed score (-2 to +2)":0,"call":"inactive"}
{"gene symbol":"HLA-DMB (major histocompatibility complex, class II, DM beta)","two-siRNA summed score (-2 to +2)":0,"call":"inactive"}
{"gene symbol":"UNC5A (unc-5 netrin receptor A)","two-siRNA summed score (-2 to +2)":0,"call":"inactive"}
{"gene symbol":"PYY (peptide YY)","two-siRNA summed score (-2 to +2)":0,"call":"inactive"}
{"gene symbol":"TMEM11 (transmembrane protein 11)","two-siRNA summed score (-2 to +2)":0,"call":"inactive"}
{"gene symbol":"GNAS (GNAS complex locus)","two-siRNA summed score (-2 to +2)":-1,"call":"inactive"}
{"gene symbol":"GPC2 (glypican 2)","two-siRNA summed score (-2 to +2)":-1,"call":"inactive"}
{"gene symbol":"QRICH2 (glutamine rich 2)","two-siRNA summed score (-2 to +2)":-1,"call":"inactive"}
{"gene symbol":"DMRTA1 (DMRT like family A1)","two-siRNA summed score (-2 to +2)":0,"call":"inactive"}
{"gene symbol":"LOC401551","two-siRNA summed score (-2 to +2)":0,"call":"inactive"}
{"gene symbol":"ARHGAP31 (Rho GTPase activating protein 31)","two-siRNA summed score (-2 to +2)":0,"call":"inactive"}
{"gene symbol":"IFT70B (intraflagellar transport 70B)","two-siRNA summed score (-2 to +2)":0,"call":"inactive"}
{"gene symbol":"GSPT2 (G1 to S phase transition 2)","two-siRNA summed score (-2 to +2)":0,"call":"inactive"}
{"gene symbol":"ZNF184 (zinc finger protein 184)","two-siRNA summed score (-2 to +2)":0,"call":"inactive"}
{"gene symbol":"ACIN1 (apoptotic chromatin condensation inducer 1)","two-siRNA summed score (-2 to +2)":0,"call":"inactive"}
{"gene symbol":"NPY4R (neuropeptide Y receptor Y4)","two-siRNA summed score (-2 to +2)":0,"call":"inactive"}
{"gene symbol":"PAQR7 (progestin and adipoQ receptor family member 7)","two-siRNA summed score (-2 to +2)":0,"call":"inactive"}
{"gene symbol":"GLYATL2 (glycine-N-acyltransferase like 2)","two-siRNA summed score (-2 to +2)":0,"call":"inactive"}
{"gene symbol":"FH (fumarate hydratase)","two-siRNA summed score (-2 to +2)":0,"call":"inactive"}
{"gene symbol":"LOC220686","two-siRNA summed score (-2 to +2)":0,"call":"inactive"}
{"gene symbol":"RITA1 (RBPJ interacting and tubulin associated 1)","two-siRNA summed score (-2 to +2)":-1,"call":"inactive"}
{"gene symbol":"SOX21 (SRY-box transcription factor 21)","two-siRNA summed score (-2 to +2)":0,"call":"inactive"}
{"gene symbol":"DHRS2 (dehydrogenase/reductase 2)","two-siRNA summed score (-2 to +2)":0,"call":"inactive"}
{"gene symbol":"LOC440533","two-siRNA summed score (-2 to +2)":0,"call":"inactive"}
{"gene symbol":"DPYD (dihydropyrimidine dehydrogenase)","two-siRNA summed score (-2 to +2)":0,"call":"inactive"}
{"gene symbol":"RIC1 (RIC1 partner of RAB6A GEF complex)","two-siRNA summed score (-2 to +2)":0,"call":"inactive"}
{"gene symbol":"CD4 (CD4 molecule)","two-siRNA summed score (-2 to +2)":0,"call":"inactive"}

5 consecutive records already listed, for reference:
{"gene symbol":"UNC5A (unc-5 netrin receptor A)","two-siRNA summed score (-2 to +2)":0,"call":"inactive"}
{"gene symbol":"PYY (peptide YY)","two-siRNA summed score (-2 to +2)":0,"call":"inactive"}
{"gene symbol":"TMEM11 (transmembrane protein 11)","two-siRNA summed score (-2 to +2)":0,"call":"inactive"}
{"gene symbol":"GNAS (GNAS complex locus)","two-siRNA summed score (-2 to +2)":-1,"call":"inactive"}
{"gene symbol":"GPC2 (glypican 2)","two-siRNA summed score (-2 to +2)":-1,"call":"inactive"}
